Publication PMC4024641
No constants are given. Whether binding was seen depends on the method and setting. In cells and extracts the contact can be indirect. Here binding means that the protein was enriched with, or labelled near, the bait; the list need not be complete. Sequences can lack the tags named with a protein. Blank lines part the entries; values can stand above or below the binder they belong to.

Assays:
Assay in all cases: affinity purification with mass spectrometry; 3×FLAG- or 13×myc-tagged bait purified from S. pombe cell extract on α-FLAG (M2) or α-myc (9E10) antibody cross-linked to Protein G Dynabeads, 4°C for 3 h, IP buffer (20 mM HEPES pH 7.5, 100 mM NaCl, 5 mM MgCl2, 1 mM EDTA, 10% glycerol, 0.25% Triton X-100, 0.5 mM DTT); LC-MS/MS; Red1-3×FLAG also from iss10Δ, rmn1Δ and Mtl1 knockdown cells
Red1-3×FLAG (S. pombe) = biological target: T1, Red1-3×FLAG (S. pombe) (UniProt Q9UTR8)
T1 sequence: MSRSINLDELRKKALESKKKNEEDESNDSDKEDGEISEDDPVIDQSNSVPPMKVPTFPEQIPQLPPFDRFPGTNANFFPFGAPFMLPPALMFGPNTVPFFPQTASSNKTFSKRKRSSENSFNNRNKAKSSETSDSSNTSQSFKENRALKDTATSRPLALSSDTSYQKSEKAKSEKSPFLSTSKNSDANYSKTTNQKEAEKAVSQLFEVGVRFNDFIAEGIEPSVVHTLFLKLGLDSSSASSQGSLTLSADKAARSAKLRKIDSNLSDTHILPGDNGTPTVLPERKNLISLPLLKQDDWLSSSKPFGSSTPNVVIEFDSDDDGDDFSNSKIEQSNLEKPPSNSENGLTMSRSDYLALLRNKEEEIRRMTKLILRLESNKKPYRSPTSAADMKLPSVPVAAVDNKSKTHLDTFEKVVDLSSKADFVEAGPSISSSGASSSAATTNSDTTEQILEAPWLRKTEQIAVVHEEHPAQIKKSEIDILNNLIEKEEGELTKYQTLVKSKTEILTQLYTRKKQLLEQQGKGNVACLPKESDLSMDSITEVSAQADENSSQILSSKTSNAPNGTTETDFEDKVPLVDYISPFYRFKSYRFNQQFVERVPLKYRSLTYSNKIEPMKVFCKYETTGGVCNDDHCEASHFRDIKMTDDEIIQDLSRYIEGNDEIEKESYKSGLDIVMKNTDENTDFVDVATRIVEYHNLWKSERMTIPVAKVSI

Ars2-3×FLAG (S. pombe) = biological target: T2, Ars2-3×FLAG (S. pombe) (UniProt O94326)
T2 sequence: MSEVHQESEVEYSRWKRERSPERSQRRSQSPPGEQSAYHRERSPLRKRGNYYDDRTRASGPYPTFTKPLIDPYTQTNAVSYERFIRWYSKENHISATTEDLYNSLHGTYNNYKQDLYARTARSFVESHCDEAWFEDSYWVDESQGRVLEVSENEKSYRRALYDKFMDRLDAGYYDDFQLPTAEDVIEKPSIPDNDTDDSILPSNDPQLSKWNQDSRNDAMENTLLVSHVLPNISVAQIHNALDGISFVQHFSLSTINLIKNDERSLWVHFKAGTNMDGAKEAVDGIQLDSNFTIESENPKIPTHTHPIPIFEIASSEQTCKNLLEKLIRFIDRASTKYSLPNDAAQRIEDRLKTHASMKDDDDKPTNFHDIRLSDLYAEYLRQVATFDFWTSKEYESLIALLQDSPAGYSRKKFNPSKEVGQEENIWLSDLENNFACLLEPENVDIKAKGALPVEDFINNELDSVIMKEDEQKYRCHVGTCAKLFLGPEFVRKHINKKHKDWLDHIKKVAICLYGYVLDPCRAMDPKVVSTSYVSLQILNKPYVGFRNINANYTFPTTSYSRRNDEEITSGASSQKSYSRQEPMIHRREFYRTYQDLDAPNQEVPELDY

Mtl1-3×FLAG (S. pombe) = biological target: T3, Mtl1-3×FLAG (S. pombe) (UniProt O13799)
T3 sequence: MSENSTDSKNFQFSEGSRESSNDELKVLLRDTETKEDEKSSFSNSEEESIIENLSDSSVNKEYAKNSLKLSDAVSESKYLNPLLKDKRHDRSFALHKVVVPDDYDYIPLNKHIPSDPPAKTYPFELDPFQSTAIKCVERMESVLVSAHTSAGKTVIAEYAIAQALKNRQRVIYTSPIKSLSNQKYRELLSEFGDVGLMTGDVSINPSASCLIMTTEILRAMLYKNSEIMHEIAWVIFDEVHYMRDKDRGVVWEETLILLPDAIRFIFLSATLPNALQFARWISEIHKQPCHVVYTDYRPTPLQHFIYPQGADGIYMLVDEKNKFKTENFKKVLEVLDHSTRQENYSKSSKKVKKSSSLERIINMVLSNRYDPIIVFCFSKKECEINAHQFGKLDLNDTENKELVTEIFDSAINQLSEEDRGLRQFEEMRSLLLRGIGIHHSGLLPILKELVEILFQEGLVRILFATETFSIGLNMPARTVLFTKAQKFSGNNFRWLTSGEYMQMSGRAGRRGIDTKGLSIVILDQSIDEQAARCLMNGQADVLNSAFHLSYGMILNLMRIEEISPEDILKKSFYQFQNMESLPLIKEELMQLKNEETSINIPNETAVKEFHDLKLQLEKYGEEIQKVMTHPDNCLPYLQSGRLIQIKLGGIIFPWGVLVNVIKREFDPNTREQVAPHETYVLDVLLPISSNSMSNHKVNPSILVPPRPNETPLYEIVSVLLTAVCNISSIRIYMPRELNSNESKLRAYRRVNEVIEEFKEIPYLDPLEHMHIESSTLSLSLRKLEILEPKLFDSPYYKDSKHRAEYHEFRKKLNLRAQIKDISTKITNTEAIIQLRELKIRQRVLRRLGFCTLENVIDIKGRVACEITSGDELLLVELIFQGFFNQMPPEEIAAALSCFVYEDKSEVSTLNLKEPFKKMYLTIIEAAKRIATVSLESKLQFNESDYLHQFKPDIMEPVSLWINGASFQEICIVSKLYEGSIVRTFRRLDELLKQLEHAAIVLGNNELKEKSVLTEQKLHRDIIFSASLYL

binding (Red1-3×FLAG (S. pombe)): binds
binding (Ars2-3×FLAG (S. pombe)): binds
binding (Mtl1-3×FLAG (S. pombe)): binds
B1: Cbc1 (protein, UniProt O14253 1-780)
chain: MSSYRGSTRPRKRTREGENYGFRPHRGNSQELLAARIKKDITFLADPRGNSVAADDINYVAMSLSREANDPETISTILDCIQTTAFIIPVKIPHLATLIIRASLRVPLILEKAAAYFCLQYFTNLNSFLYYEAKVDLRMLICMSFALQPGTLKPLFSLLADAISKETKPSVWGDNFLRIILINLPYFIAANNDLGKKDFANEILDQCEIYVRHRKSSITLSNPLSIHDNLSEEELDLLYKQLILSRENDFTFPYISQPWKFFESDFVHIVPVSPSIPEWTFQPTPQQNELPSFKRFFELFNNFEIRTTPDASDVAASIFRDISVDVINHLEFNRVEAAQVLTDLDVYFTYKTFALRGTPVNELPNLDPSESRWKAEDIIVEAVLGELLGSQNTTYKPVYYHSLLIECCRIAPKILAPTFGRVIRLMYTMSSDLPLQTLDRFIDWFSHHLSNFNFHWKWNEWIPDVELDDLHPKKVFMRETITRELILSYYTRISDSLPEELRCLLGEQPSGPNFVYENETHPLYQQSSQIIEALRLHKPLEELDIILQSEEIQNSETSAVRLVMSCAYSLGSRSFSHALNVFEKHLNTLKHFSRKSLDSEIEVVDELFSFWKLQPFNAVMWLDKMLNYSIISITSIIEWLIKQDVTIWSRSYTWSLVNTTFNKLAARLRRSVSNKEDSSLINEANEEKEIVTNLLLSALRALISENAENIWVSHWLNLMLKYVESNFLSVKKDTIEEANEPVQENTSEEQEDTKMQPVDAVDEQPSENNQTAADATNEEK

binding (Red1-3×FLAG (S. pombe)): binds
binding (Ars2-3×FLAG (S. pombe)): binds
binding (Mtl1-3×FLAG (S. pombe)): binds
B2: Cbc2 (protein, UniProt Q9P383 1-182)
chain: MASITRLDAVSPYLIRRFKNDLRALDAVKQSNCVYVGNLSFYTTEEQIYALFSKCGEIRRIIMGVDRFTKTPCGFCFVEYFENQDALDSLKYISRTSLDERIIRADLDHGYEEGRQYGRGASGGQVRDEMREEFDPGRGGYAKNRQPTSSRQLANYSGISSAPLGSSLELQSNPRYNRWKKN

binding (Red1-3×FLAG (S. pombe)): binds
binding (Mtl1-3×FLAG (S. pombe)): binds
B3: Ars2-3×FLAG (protein, UniProt O94326 1-609)
chain: T2 sequence
